PMC6726423
These are yes or no findings as the source states them, for the method shown. Binding seen in cells or lysates may run through a third protein. Some binding calls cover weakened binding; strength is not graded here.

Protein sequences, listed by entry. Tags and fused reporters are not part of them. Lines headed by an entry give the natural chain unless they say otherwise; changes in a name come on top. Residues count along the entry.
UniProt P06756: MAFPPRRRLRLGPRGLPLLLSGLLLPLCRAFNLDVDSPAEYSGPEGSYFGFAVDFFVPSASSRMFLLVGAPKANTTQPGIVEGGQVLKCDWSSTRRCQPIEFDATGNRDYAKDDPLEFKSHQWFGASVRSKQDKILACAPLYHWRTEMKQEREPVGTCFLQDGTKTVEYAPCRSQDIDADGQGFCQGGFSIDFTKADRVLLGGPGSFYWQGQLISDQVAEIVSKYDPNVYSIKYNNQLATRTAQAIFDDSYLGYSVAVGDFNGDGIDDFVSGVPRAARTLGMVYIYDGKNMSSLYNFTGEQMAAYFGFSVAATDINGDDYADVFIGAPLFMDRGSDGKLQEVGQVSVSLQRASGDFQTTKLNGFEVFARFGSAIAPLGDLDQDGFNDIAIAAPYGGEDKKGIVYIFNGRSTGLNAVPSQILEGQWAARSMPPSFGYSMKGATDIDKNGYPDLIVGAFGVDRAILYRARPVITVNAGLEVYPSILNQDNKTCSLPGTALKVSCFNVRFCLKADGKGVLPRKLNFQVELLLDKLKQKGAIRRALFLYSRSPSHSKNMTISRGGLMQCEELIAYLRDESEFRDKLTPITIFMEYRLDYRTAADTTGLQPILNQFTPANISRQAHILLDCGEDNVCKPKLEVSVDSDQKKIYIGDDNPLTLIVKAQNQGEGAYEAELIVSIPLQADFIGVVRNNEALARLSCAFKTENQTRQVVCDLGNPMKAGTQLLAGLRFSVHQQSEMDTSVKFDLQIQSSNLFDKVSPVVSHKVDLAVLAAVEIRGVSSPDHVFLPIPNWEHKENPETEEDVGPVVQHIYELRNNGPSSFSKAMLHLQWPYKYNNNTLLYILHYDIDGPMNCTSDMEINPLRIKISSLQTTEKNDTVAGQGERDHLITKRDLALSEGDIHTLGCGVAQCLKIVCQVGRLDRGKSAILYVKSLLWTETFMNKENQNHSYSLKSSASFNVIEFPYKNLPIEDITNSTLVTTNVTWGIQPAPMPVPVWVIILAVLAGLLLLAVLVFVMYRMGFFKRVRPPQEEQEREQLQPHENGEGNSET
UniProt P05106: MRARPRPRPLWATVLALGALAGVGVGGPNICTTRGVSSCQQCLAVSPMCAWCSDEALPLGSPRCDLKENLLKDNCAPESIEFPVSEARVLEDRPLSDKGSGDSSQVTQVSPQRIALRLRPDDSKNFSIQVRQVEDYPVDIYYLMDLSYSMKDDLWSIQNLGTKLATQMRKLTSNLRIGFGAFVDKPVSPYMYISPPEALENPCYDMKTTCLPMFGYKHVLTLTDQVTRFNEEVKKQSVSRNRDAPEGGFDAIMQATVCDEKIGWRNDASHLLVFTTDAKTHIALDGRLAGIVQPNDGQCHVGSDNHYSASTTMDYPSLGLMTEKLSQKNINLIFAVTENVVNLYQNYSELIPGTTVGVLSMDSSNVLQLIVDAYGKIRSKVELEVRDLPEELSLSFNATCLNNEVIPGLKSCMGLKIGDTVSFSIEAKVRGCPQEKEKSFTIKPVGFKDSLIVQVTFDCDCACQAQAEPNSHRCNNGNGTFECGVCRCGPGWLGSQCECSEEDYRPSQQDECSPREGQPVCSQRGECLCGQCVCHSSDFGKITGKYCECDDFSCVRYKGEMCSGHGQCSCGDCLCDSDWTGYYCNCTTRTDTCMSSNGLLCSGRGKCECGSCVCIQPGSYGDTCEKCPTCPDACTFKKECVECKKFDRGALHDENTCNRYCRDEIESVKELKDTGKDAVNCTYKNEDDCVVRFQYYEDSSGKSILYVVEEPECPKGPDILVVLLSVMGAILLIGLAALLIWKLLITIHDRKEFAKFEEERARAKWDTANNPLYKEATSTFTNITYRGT
UniProt P35968, residues 20-1356: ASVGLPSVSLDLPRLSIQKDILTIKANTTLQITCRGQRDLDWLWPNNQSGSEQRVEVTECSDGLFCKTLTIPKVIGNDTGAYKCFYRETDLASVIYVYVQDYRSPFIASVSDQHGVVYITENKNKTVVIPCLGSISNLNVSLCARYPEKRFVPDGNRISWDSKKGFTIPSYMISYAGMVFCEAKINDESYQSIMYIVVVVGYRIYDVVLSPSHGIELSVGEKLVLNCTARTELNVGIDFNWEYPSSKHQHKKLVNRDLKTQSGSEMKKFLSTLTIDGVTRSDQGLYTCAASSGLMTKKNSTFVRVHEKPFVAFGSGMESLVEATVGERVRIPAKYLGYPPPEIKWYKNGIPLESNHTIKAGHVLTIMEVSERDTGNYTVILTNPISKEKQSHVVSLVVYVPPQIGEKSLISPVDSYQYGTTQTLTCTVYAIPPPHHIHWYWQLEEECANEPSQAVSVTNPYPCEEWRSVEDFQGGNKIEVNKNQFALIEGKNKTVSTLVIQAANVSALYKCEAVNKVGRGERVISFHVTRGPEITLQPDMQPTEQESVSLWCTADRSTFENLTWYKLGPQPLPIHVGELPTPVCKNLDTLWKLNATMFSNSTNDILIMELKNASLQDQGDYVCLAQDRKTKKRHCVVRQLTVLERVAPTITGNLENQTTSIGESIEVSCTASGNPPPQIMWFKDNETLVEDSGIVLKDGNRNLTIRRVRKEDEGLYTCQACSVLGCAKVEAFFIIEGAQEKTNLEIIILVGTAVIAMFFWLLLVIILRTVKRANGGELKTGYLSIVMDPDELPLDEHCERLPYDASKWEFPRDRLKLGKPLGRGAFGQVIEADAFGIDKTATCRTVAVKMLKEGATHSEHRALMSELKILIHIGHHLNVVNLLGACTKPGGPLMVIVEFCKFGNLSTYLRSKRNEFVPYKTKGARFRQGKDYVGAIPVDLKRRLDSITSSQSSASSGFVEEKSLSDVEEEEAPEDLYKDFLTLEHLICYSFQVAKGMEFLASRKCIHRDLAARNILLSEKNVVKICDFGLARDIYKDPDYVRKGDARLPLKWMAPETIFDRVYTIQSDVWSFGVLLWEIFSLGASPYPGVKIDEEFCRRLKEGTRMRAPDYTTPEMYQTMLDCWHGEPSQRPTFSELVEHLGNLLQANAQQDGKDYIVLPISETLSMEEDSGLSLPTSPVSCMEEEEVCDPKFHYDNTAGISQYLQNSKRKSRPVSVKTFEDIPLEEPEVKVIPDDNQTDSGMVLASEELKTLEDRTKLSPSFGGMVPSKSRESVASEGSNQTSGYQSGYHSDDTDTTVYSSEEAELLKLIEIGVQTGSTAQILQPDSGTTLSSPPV

Tests used:
[1] = target: T1, integrin αvβ3 (human (endogenous in HUVEC)) (UniProt P06756+P05106); experiment: co-IP; HUVECs treated with recombinant CCN1 (10 ng/mL) for 24 hr, with or without cyclo(RGDfK) (1 ug/mL); IP and immunoblotting; the precipitating antibody is not told; only the binder purified
[2] = target: vascular endothelial growth factor receptor 2 (VEGFR2) (human (endogenous in HUVEC)) (UniProt P35968); experiment: as above
[3] = target: T1, integrin αvβ3 (human (endogenous in HUVEC)); experiment: proximity ligation; in situ PLA on PFA-fixed HUVECs treated with CCN1; anti-VEGFR2, anti-CCN1 and anti-integrin β3 antibodies; red dots per cell counted; only the binder purified
[4] = target: vascular endothelial growth factor receptor 2 (VEGFR2) (human (endogenous in HUVEC)) (UniProt P35968); experiment: as above

Measured: binding

B1: CCN1 (cysteine-rich angiogenic inducer 61), recombinant protein (ligand, UniProt O00622 25-381)
chain: TCPAACHCPLEAPKCAPGVGLVRDGCGCCKVCAKQLNEDCSKTQPCDHTKGLECNFGASSTALKGICRAQSEGRPCEYNSRIYQNGESFQPNCKHQCTCIDGAVGCIPLCPQELSLPNLGCPNPRLVKVTGQCCEEWVCDEDSIKDPMEDQDGLLGKELGFDASEVELTRNNELIAVGKGSSLKRLPVFGMEPRILYNPLQGQKCIVQTTSWSQCSKTCGTGISTRVTNDNPECRLVKETRICEVRPCGQPVYSSLKKGKKCSKTKKSPEPVRFTYAGCLSVKKYRPKYCGSCVDGRCCTPQLTRTVKMRFRCEDGETFSKNVMMIQSCKCNYNCPHANEAAFPFYRLFNDIHKFRD
binds: all assays above
